Assay results as given in US20250049929A1, “NOVEL TETRAHYDROQUINOLINES AND PROTEOLYSIS TARGETING CHIMERA (PROTACS) COMPRISING THEM AS DEGRADERS OF SMARCA” (Boehringer Ingelheim International GmbH, priority 2021, published 2025).
For at least one compound, name, drawing or mass did not settle the structure.

Amino acid sequences for entries named in this document (tags omitted).
UniProt P51532, whole entry: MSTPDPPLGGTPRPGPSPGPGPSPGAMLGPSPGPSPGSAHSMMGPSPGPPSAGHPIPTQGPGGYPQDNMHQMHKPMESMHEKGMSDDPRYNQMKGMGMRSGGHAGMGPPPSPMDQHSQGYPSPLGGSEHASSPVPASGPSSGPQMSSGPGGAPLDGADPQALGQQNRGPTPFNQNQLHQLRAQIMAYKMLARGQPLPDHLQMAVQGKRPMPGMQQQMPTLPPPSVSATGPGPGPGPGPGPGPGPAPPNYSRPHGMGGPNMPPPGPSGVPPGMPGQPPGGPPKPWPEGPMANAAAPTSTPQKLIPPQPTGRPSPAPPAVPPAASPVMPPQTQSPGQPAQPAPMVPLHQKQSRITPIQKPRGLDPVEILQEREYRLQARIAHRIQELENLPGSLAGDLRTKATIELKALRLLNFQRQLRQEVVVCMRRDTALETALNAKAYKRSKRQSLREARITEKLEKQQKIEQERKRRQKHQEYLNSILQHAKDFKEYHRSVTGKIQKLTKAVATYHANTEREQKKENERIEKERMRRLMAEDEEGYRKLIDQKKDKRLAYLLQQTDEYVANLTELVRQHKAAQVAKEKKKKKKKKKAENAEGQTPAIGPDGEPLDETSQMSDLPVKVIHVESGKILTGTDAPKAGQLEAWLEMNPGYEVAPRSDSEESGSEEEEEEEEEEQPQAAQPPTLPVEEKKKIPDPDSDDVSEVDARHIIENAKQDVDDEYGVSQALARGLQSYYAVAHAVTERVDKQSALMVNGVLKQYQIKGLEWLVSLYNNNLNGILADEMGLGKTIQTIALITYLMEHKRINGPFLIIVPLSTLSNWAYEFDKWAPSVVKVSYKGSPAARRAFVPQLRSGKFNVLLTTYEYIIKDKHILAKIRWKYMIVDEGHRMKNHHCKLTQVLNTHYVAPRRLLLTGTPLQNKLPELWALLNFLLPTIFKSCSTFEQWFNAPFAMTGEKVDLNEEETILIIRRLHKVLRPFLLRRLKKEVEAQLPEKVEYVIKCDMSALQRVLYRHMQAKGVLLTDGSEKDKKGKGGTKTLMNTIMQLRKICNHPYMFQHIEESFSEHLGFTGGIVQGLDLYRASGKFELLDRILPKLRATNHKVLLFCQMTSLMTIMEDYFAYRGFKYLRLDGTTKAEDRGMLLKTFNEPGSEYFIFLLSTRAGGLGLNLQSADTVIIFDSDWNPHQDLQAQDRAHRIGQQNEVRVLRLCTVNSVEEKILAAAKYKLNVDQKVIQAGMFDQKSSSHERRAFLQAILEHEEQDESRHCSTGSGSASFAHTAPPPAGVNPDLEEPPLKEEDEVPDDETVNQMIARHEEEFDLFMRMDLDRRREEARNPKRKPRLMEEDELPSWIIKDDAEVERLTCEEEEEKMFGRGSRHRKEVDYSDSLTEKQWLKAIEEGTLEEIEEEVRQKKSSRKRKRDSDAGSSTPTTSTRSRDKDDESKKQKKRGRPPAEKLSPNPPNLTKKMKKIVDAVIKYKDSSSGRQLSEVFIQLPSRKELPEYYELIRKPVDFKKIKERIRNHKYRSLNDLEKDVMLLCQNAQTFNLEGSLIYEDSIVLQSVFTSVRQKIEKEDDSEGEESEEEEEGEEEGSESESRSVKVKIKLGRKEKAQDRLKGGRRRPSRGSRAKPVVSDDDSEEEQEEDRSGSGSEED

Target: T1, SMARCA4 (Homo sapiens, UniProt P51532)
T1 construct: endogenous in cells; host or cells: RKO cells (CRL-2577, ATCC)
Test: SMARCA4 degradation analysis by imaging in RKO cells (DC50 A4)
Format: cell-based
Conditions: tables 69, 70, 73, 76-78
Description: Determination of SMARCA2 and SMARCA4 Degradation (DC50 A2 and A4 [nM])
Protein Degradation Assays for SMARCA2 and SMARCA4
For degradation analysis by imaging, 1250 RKO cells (CRL-2577, ATCC) per well were seeded into 60 μL DMEM (Sigma Aldrich) supplemented with 10% FBS (Hyclone) in 384-well flat bottom plates (CellCarrier Ultra, Perkin Elmer) and incubated at 37° C. and 5% CO2 in a humidified atmosphere overnight. Compounds were added the next day using an Access Labcyte Workstation with a Labcyte Echo 550 or 555 acoustic dispenser and incubated with the cells for 4 or 24 h. Cells were fixed by adding 25 μL fixation buffer (7.4% formaldehyde (Sigma Aldrich F8775), 0.2% Triton TX100 (Sigma Aldrich F93443) in PBS) for 15 minutes at room temperature. After aspirating the fixing solution, the cells were washed once with 25 μL PBS and 25 μL of Blocking Buffer (10% Goat Serum in PBS) were added to each well and incubated for 30 minutes. […] The mean intensity at 488 or 647 nm in the nucleus was measured using an Opera Phenix Plus High-Content Screening System (Perkin Elmer), values were normalized to the background and DMSO control and DC50 values were calculated and analyzed using a four-parametric logistic model.

For `Cc1ncsc1-c1ccc([C@H](COCCN2CCC(c3ccc4c(c3)n(C3CCCC3)c3nc(=O)c5c(Br)cccc5n43)CC2)NC(=O)[C@@H]2C[C@@H](O)CN2C(=O)[C@@H](NC(=O)C2(N(C)C)CC2)C(C)(C)C)cc1` [Compound 42aj], the DC50 was 62 nM.
